The supplement of paper PMC8728848
This is one part of the list.

Columns and labels:
Assay in all cases: glycan array binding signal (z-score within array); higher = stronger binding
Conditions in all cases: glycan notation: IUPAC condensed, linker removed
[1] = molecular target: Neu5Ac(a2-6)Gal(b1-4)GlcNAc(b1-2)Man(a1-3)[Man(a1-6)]Man(b1-4)GlcNAc(b1-4)GlcNAc
In short: (§1)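 The binding signal is a Z-score computed within each array and averaged over linkers. Arrays of the same protein sequence at different concentrations or buffers were also averaged together. Data originate from 3228 arrays in the Consortium for Functional Glycomics database, kept only where the protein sequence was available.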

[2] = molecular target: Neu5Ac(a2-6)Gal(b1-4)GlcNAc(b1-2)Man(a1-3)[Neu5Ac(a2-3)Gal(b1-4)GlcNAc(b1-2)Man(a1-6)]Man(b1-4)GlcNAc(b1-4)GlcNAc
In short: as §1

[3] = molecular target: Neu5Ac(a2-6)Gal(b1-4)GlcNAc(b1-2)Man(a1-3)[Neu5Ac(a2-6)Gal(b1-4)GlcNAc(b1-2)Man(a1-6)]Man(b1-4)GlcNAc(b1-4)GlcNAc
In short: as §1

[4] = molecular target: Neu5Ac(a2-6)Gal(b1-4)GlcNAc(b1-2)Man(a1-3)[Neu5Ac(a2-6)Gal(b1-4)GlcNAc(b1-2)Man(a1-6)]Man(b1-4)GlcNAc(b1-4)[Fuc(a1-6)]GlcNAc
In short: as §1

[5] = molecular target: Neu5Ac(a2-6)Gal(b1-4)GlcNAc(b1-2)Man(a1-6)Man(b1-4)GlcNAc(b1-4)GlcNAc
In short: as §1

[6] = molecular target: Neu5Ac(a2-6)Gal(b1-4)GlcNAc(b1-2)Man(a1-6)[Gal(b1-4)GlcNAc(b1-2)Man(a1-3)]Man(b1-4)GlcNAc(b1-4)GlcNAc
In short: as §1

[7] = molecular target: Neu5Ac(a2-6)Gal(b1-4)GlcNAc(b1-2)Man(a1-6)[GlcNAc(b1-2)Man(a1-3)]Man(b1-4)GlcNAc(b1-4)GlcNAc
In short: as §1

[8] = molecular target: Neu5Ac(a2-6)Gal(b1-4)GlcNAc(b1-2)Man(a1-6)[Man(a1-3)]Man(b1-4)GlcNAc(b1-4)GlcNAc
In short: as §1

[9] = molecular target: Neu5Ac(a2-6)Gal(b1-4)GlcNAc(b1-2)[Neu5Ac(a2-6)Gal(b1-4)GlcNAc(b1-4)]Man(a1-3)[GlcNAc(b1-4)][Neu5Ac(a2-6)Gal(b1-4)GlcNAc(b1-2)[Neu5Ac(a2-6)Gal(b1-4)GlcNAc(b1-6)]Man(a1-6)]Man(b1-4)GlcNAc(b1-4)GlcNAc
In short: as §1

[10] = molecular target: Neu5Ac(a2-6)Gal(b1-4)GlcNAc(b1-2)[Neu5Ac(a2-6)Gal(b1-4)GlcNAc(b1-4)]Man(a1-3)[GlcNAc(b1-4)][Neu5Ac(a2-6)Gal(b1-4)GlcNAc(b1-4)Man(a1-6)]Man(b1-4)GlcNAc(b1-4)GlcNAc
In short: as §1

[11] = molecular target: Neu5Ac(a2-6)Gal(b1-4)GlcNAc(b1-2)[Neu5Ac(a2-6)Gal(b1-4)GlcNAc(b1-6)]Man(a1-6)[Neu5Ac(a2-6)Gal(b1-4)GlcNAc(b1-2)Man(a1-3)][GlcNAc(b1-4)]Man(b1-4)GlcNAc(b1-4)GlcNAc
In short: as §1

[12] = molecular target: Neu5Ac(a2-6)Gal(b1-4)GlcNAc(b1-3)Gal(b1-3)GlcNAc
In short: as §1

[13] = molecular target: Neu5Ac(a2-6)Gal(b1-4)GlcNAc(b1-3)Gal(b1-4)GlcNAc
In short: as §1

[14] = molecular target: Neu5Ac(a2-6)Gal(b1-4)GlcNAc(b1-3)Gal(b1-4)GlcNAc(b1-2)Man(a1-3)[Neu5Ac(a2-6)Gal(b1-4)GlcNAc(b1-3)Gal(b1-4)GlcNAc(b1-2)Man(a1-6)]GalNAc
In short: as §1

[15] = molecular target: Neu5Ac(a2-6)Gal(b1-4)GlcNAc(b1-3)Gal(b1-4)GlcNAc(b1-3)Gal(b1-4)GlcNAc
In short: as §1

[16] = molecular target: Neu5Ac(a2-6)Gal(b1-4)GlcNAc(b1-3)Gal(b1-4)GlcNAc(b1-3)Gal(b1-4)GlcNAc(b1-2)Man(a1-3)[Neu5Ac(a2-6)Gal(b1-4)GlcNAc(b1-3)Gal(b1-4)GlcNAc(b1-3)Gal(b1-4)GlcNAc(b1-2)Man(a1-6)]GalNAc
In short: as §1

[17] = molecular target: Neu5Ac(a2-6)Gal(b1-4)GlcNAc(b1-3)Gal(b1-4)GlcNAc(b1-3)GalNAc
In short: as §1

[18] = molecular target: Neu5Ac(a2-6)Gal(b1-4)GlcNAc(b1-3)Gal(b1-4)GlcNAc(b1-3)[Neu5Ac(a2-6)Gal(b1-4)GlcNAc(b1-3)Gal(b1-4)GlcNAc(b1-6)]GalNAc
In short: as §1

[19] = molecular target: Neu5Ac(a2-6)Gal(b1-4)GlcNAc(b1-3)Gal(b1-4)GlcNAc(b1-6)[Gal(b1-3)]GalNAc
In short: as §1

[20] = molecular target: Neu5Ac(a2-6)Gal(b1-4)GlcNAc(b1-3)Gal(b1-4)[Fuc(a1-3)]GlcNAc(b1-3)Gal(b1-4)[Fuc(a1-3)]GlcNAc
In short: as §1

[21] = molecular target: Neu5Ac(a2-6)Gal(b1-4)GlcNAc(b1-3)GalNAc
In short: as §1

[22] = molecular target: Neu5Ac(a2-6)Gal(b1-4)GlcNAc(b1-3)[Neu5Ac(a2-6)Gal(b1-4)GlcNAc(b1-6)]GalNAc
In short: as §1

[23] = molecular target: Neu5Ac(a2-6)Gal(b1-4)GlcNAc(b1-6)GalNAc
In short: as §1

[24] = molecular target: Neu5Ac(a2-6)Gal(b1-4)GlcNAc(b1-6)[Gal(b1-3)GlcNAc(b1-3)]Gal(b1-4)Glc
In short: as §1

[25] = molecular target: Neu5Ac(a2-6)Gal(b1-4)GlcNAc(b1-6)[Gal(b1-3)]GalNAc
In short: as §1

[26] = molecular target: Neu5Ac(a2-6)Gal(b1-4)GlcNAc6S
In short: as §1

Neu5Ac(a2-6)GalNAc = molecular target: Neu5Ac(a2-6)GalNAc
In short: as §1

[27] = molecular target: Neu5Ac(a2-6)GalNAc(b1-4)GlcNAc
In short: as §1

[28] = molecular target: Neu5Ac(a2-6)GalNAc(b1-4)GlcNAc6S
In short: as §1

[29] = molecular target: Neu5Ac(a2-6)GlcNAc(b1-4)GlcNAc
In short: as §1

[30] = molecular target: Neu5Ac(a2-6)GlcNAc(b1-4)GlcNAc(b1-4)GlcNAc
In short: as §1

B1: SJCP1531 (Schistosoma japonicum) (protein)
chain: MFKVRIINLVNISTVLLLINLLQTKSQVNVEQLVTVLEVNIKAQLKNKTTEVLVEWNPLYQDNSMPEYRKLLDETCKLFLPFVNEKVPPSTYGGECTNANFSEAPQDGSYSRVNAELRLIYKYSDNPQIQTDRLQDDLNDREEFITSESSFVAYNPKFTVKIEKLFIPISESQTTPPPTTAKNDASKKDDDDNGGEDSKAPIDTFAMTASGNKGKKDDDDNGGEDSKAPIDTFAMTASGSKDERSTWTIIGIITLVVLIFVVIGGGITVFVKRC
glycan array binding signal (z-score) [1]: -0.373
glycan array binding signal (z-score) [2]: -0.577
glycan array binding signal (z-score) [3]: 0.54
glycan array binding signal (z-score) [4]: 0.85
glycan array binding signal (z-score) [5]: -0.187
glycan array binding signal (z-score) [6]: 1.07
glycan array binding signal (z-score) [7]: -0.388
glycan array binding signal (z-score) [8]: -1.2
glycan array binding signal (z-score) [9]: -1.71
glycan array binding signal (z-score) [10]: -1.19
glycan array binding signal (z-score) [11]: -0.8
glycan array binding signal (z-score) [12]: -0.1
glycan array binding signal (z-score) [13]: 0.433
glycan array binding signal (z-score) [14]: 0.152
glycan array binding signal (z-score) [15]: -0.766
glycan array binding signal (z-score) [16]: 3.3
glycan array binding signal (z-score) [17]: 2.87
glycan array binding signal (z-score) [18]: 3
glycan array binding signal (z-score) [19]: -0.713
glycan array binding signal (z-score) [20]: 1.44
glycan array binding signal (z-score) [21]: -0.154
glycan array binding signal (z-score) [22]: -0.441
glycan array binding signal (z-score) [23]: -0.157
glycan array binding signal (z-score) [24]: 0.485
glycan array binding signal (z-score) [25]: 0.236
glycan array binding signal (z-score) [26]: -0.736
glycan array binding signal (z-score) (Neu5Ac(a2-6)GalNAc): -0.48
glycan array binding signal (z-score) [27]: -1.71
glycan array binding signal (z-score) [28]: 0.413
glycan array binding signal (z-score) [29]: -0.636
glycan array binding signal (z-score) [30]: -0.292
